In the supplement of paper PMC10849652 one finds log2 fold change data, which are given here for 32 targets.

The chains behind the UniProt entries cited, without tags or fusion partners. Where a name states a change or a piece, a line headed by the entry shows the natural chain unless it says otherwise.
UniProt Q6GMV2: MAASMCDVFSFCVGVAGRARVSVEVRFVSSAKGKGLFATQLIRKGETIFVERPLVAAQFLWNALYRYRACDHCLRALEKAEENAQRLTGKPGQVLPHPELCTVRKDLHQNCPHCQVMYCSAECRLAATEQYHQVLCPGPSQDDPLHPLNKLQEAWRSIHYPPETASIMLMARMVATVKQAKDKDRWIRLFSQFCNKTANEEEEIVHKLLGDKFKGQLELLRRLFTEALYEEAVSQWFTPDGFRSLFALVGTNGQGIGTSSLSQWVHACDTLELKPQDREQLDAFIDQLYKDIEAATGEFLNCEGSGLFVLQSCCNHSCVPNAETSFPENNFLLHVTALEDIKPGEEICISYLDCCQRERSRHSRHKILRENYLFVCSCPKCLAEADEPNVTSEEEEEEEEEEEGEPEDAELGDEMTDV
UniProt P19634, whole entry, looked up: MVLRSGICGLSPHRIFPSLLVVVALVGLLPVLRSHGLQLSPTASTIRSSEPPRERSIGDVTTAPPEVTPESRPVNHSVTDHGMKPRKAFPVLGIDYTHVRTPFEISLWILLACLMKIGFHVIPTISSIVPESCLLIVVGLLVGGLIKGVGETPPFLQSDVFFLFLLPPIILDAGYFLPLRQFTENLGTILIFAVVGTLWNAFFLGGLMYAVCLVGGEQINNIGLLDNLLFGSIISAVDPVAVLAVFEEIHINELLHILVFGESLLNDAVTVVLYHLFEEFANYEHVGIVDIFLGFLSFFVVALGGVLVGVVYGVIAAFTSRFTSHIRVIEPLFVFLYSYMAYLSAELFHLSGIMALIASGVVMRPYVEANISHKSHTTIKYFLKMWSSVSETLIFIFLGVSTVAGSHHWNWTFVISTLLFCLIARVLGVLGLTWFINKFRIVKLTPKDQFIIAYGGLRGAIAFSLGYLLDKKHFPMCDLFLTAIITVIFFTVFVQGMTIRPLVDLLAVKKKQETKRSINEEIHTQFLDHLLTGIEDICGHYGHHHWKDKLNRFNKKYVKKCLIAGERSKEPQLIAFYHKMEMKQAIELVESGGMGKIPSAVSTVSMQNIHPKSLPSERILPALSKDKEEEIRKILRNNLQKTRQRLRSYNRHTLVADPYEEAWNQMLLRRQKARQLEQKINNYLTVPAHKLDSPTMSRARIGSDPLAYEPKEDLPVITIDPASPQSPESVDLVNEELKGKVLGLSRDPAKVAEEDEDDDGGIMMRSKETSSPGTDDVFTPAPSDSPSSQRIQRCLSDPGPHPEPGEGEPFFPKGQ
UniProt O14745: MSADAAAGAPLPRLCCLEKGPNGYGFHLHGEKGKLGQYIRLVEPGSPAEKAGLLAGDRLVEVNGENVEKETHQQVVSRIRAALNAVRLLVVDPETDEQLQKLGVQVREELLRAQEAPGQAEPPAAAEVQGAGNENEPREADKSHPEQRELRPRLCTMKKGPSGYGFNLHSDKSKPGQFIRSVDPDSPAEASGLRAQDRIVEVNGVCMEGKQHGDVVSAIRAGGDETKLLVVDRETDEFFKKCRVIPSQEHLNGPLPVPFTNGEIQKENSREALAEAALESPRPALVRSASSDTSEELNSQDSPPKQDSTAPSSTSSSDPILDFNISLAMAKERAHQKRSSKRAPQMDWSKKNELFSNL
UniProt Q92540: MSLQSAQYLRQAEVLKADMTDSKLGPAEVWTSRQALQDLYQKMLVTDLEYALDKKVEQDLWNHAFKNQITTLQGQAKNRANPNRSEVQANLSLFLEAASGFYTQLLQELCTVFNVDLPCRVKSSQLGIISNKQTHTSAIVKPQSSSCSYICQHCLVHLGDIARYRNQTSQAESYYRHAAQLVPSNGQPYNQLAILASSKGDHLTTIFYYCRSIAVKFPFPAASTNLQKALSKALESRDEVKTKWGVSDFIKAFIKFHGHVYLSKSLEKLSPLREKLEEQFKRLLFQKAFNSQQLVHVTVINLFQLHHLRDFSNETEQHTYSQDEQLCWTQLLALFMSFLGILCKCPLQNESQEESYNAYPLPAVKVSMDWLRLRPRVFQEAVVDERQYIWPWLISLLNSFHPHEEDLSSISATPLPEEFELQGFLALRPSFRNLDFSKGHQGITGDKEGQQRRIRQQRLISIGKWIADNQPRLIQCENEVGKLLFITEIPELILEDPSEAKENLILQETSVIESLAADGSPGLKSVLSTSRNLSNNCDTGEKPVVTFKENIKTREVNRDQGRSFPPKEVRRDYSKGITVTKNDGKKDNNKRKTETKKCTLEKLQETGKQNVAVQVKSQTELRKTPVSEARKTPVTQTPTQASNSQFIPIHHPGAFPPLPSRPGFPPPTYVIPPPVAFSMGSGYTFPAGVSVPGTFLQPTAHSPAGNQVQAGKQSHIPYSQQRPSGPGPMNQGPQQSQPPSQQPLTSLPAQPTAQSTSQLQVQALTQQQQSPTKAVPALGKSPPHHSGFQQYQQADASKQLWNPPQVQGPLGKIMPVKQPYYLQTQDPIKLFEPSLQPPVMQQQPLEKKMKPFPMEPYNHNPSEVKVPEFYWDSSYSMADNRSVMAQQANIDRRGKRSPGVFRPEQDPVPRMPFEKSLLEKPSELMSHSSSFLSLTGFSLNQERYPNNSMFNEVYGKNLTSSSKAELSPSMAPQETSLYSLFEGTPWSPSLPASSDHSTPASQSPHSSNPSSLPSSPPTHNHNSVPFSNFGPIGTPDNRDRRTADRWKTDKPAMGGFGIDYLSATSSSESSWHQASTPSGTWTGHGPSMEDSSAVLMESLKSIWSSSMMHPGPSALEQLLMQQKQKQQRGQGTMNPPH
UniProt Q14683: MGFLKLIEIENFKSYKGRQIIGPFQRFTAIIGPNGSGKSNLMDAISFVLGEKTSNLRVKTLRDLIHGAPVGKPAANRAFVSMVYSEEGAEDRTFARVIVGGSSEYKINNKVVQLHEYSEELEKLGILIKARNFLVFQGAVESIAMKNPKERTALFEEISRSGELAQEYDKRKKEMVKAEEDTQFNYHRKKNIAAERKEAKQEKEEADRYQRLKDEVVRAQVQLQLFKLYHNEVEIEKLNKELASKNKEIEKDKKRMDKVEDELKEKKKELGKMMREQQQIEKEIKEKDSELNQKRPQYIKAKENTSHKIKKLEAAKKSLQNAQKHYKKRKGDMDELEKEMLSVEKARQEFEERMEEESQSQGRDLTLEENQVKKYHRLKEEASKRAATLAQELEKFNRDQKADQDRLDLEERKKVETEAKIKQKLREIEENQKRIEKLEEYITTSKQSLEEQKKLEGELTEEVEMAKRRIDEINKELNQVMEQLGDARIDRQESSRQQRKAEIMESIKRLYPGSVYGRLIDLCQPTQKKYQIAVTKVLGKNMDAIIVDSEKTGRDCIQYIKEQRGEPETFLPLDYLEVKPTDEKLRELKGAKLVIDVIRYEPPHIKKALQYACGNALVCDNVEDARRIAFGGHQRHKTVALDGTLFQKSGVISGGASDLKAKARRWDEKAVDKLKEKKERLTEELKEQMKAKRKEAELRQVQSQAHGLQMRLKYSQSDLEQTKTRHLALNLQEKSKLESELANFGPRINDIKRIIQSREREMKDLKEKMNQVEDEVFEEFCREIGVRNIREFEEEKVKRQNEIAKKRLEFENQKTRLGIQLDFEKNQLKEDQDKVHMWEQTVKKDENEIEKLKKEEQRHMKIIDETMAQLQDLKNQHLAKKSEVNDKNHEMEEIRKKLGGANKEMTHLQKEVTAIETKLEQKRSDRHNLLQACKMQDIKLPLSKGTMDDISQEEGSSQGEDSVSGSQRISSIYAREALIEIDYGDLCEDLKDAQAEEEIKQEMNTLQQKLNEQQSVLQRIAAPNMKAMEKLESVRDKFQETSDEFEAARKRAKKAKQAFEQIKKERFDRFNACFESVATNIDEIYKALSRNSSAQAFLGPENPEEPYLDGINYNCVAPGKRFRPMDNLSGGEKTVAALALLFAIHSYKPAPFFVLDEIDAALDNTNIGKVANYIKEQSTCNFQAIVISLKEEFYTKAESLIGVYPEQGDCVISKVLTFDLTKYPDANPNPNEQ
UniProt Q15036: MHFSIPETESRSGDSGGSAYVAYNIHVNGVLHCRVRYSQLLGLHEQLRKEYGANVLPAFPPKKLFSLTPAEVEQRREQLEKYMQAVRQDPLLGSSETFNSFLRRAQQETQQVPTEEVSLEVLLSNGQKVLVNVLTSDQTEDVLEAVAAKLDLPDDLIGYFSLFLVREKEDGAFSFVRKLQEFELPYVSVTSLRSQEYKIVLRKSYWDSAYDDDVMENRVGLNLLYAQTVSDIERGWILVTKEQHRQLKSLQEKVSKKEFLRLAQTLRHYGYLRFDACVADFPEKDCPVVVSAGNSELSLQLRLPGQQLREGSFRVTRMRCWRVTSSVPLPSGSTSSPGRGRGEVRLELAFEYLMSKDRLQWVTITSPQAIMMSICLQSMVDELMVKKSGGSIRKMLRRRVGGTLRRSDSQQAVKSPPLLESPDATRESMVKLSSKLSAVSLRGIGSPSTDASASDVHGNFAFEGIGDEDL
UniProt O14508, whole entry, looked up: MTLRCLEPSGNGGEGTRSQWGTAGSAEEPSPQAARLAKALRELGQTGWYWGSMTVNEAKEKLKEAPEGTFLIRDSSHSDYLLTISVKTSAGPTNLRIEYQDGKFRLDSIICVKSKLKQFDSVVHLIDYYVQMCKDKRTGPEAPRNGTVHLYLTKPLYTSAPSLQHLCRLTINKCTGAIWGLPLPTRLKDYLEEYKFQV
UniProt Q00796: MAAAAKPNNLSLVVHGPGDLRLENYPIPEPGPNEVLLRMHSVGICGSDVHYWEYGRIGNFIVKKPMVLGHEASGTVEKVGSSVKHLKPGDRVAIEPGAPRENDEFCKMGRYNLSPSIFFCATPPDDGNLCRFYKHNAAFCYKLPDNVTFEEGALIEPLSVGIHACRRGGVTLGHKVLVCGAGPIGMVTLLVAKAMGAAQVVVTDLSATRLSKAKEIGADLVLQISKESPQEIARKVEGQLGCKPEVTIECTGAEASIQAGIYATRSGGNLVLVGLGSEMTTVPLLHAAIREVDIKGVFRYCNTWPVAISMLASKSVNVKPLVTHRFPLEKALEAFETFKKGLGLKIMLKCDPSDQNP
UniProt Q8NDV3: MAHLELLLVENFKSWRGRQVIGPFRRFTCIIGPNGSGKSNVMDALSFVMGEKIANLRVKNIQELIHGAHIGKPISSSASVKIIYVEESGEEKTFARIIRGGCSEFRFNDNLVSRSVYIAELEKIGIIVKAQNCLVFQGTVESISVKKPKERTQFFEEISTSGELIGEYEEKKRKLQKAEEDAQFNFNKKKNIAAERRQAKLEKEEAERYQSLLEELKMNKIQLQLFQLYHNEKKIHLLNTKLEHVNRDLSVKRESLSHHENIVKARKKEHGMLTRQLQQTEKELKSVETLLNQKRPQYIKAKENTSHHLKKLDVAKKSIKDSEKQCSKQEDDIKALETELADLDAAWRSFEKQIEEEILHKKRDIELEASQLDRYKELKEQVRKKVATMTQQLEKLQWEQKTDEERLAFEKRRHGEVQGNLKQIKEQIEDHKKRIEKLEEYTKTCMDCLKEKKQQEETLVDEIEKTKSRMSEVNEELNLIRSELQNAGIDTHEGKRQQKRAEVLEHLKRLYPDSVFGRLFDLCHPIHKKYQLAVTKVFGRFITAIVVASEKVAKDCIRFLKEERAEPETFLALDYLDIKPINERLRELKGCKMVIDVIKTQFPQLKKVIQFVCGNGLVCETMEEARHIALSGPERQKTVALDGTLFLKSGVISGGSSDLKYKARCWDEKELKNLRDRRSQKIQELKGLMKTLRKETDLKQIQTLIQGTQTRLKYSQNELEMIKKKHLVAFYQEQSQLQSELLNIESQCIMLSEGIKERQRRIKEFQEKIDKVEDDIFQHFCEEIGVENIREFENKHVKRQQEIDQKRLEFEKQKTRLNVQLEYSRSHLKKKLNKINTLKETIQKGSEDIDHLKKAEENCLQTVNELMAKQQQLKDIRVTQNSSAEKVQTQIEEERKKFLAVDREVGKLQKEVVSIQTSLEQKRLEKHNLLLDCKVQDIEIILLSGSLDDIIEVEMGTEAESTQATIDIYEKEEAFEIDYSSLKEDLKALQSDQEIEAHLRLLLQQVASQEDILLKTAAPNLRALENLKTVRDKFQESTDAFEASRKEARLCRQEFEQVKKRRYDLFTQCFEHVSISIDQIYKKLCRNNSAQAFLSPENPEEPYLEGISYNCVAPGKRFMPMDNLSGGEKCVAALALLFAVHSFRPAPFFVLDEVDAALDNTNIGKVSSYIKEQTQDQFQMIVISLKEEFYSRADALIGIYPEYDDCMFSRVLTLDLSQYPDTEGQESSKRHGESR
UniProt P62316, whole entry, looked up: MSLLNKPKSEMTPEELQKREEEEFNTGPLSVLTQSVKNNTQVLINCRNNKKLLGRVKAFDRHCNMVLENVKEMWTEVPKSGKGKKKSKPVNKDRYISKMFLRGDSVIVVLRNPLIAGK
UniProt P09661: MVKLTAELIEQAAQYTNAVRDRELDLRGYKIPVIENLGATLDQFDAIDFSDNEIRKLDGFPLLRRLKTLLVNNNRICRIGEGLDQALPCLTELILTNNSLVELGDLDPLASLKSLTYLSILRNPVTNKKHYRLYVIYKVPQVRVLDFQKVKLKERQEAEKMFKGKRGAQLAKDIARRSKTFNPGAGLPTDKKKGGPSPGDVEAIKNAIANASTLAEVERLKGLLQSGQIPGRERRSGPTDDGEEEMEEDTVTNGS

Some of the results follow.

Compound in the assay: CN(C)CC(=O)Nc1ccc2[nH]c(=O)c3ccccc3c2c1
The assay is described as follows: log2 fold change, soluble protein after heating vs DMSO (PISA); higher = thermal stabilisation; K562 cells, 10 uM, 30 min; active = over 0.2 and 3.5 SD of the protein, either way, in both replicates (recomputed). An outline of the steps: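 Aliquots of K562 cells (2×10^6 cells/mL) treated with 10 μM compound for 30 min were heated for 3 min over 48°C-58°C. After pooling and extraction in PBS with 0.5% NP-40 at 4°C, soluble protein from a 21,000xg, 90 min spin was quantified by TMTpro 16plex LC-MS/MS with channel sums equalised. Thermal stability is expressed against control samples, from duplicates, as a log2 fold change.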
For the target SLMAP (UniProt Q14BN4), the log2 fold change is inactive: 0.02.

For the target SNAP23 (UniProt O00161), the log2 fold change is inactive: -0.028. Under SNAP29 (UniProt O95721) stands inactive: -0.024.

As for SMYD5 (UniProt Q6GMV2), the log2 fold change is inactive: 0.008.

SMAP1 isoform 2 (UniProt Q8IYB5): the log2 fold change was inactive: -0.014. With SNRNP200 (UniProt O75643) the figure was inactive: -0.025; with SMPD2 (UniProt O60906), inactive: -0.08; with SPAG5 (UniProt Q96R06), inactive: -0.044. Under SLC9A3R2 (UniProt Q15599) stands inactive: -0.047.

As for SLC9A1 (UniProt P19634), the log2 fold change was inactive: -0.129. With SNCA (UniProt P37840) the figure was inactive: -0.003; with SMIM12 (UniProt Q96EX1), inactive: -0.088. With SNRPC (UniProt Q5TAL2), the log2 fold change was inactive: 0.033. In the case of SOD1 (UniProt P00441), the log2 fold change was inactive: -0.027. Under SLC9A3R1 (UniProt O14745) stands inactive: -0.004. Under SMG7 isoform 4 (UniProt Q92540) stands inactive: -0.028. Under SMU1 (UniProt Q2TAY7) stands inactive: -0.022; under SMC1A (UniProt Q14683), inactive: -0.012; under SNX17 (UniProt Q15036), inactive: 0.034.

In the case of SMARCC2 (UniProt Q8TAQ2), the log2 fold change was inactive: 0.065.

For the target SOCS2 (UniProt O14508), the log2 fold change was inactive: -0.001.

As to SORD (UniProt Q00796), the log2 fold change was inactive: -0.02.

For the target SMC1B isoform 3 (UniProt Q8NDV3), the log2 fold change is inactive: -0.022.

In the case of SNX16 (UniProt P57768), the log2 fold change is inactive: -0.05. As to SNRPG (UniProt P62308), the log2 fold change is inactive: 0.058. Under SMN1 (UniProt Q16637) stands inactive: -0.052. With SNRPD2 (UniProt P62316) the figure was inactive: -0.069; with SNF8 (UniProt Q96H20), inactive: -0.021; with SNRPA1 (UniProt P09661), inactive: -0.058. Under SNX8 (UniProt Q9Y5X2) stands inactive: -0.063; under SNU13, A0A3B3IUA2, inactive: -0.063; under SOD2 (UniProt P04179), inactive: -0.039.
